Measurements published in the supplement of paper PMC11732987, “Enantioselective OTUD7B fragment discovery through chemoproteomics screening and high-throughput optimisation” (Communications Chemistry, 2025).
The other results are listed elsewhere or left out. The data scatter; read single values as rough.

Chains of the proteins cited; added tags and fusions are not shown. Lines headed by an entry give the natural chain unless they say otherwise; changes in a name come on top. Residues count along the entry.
UniProt Q9H9Y6, whole entry, looked up: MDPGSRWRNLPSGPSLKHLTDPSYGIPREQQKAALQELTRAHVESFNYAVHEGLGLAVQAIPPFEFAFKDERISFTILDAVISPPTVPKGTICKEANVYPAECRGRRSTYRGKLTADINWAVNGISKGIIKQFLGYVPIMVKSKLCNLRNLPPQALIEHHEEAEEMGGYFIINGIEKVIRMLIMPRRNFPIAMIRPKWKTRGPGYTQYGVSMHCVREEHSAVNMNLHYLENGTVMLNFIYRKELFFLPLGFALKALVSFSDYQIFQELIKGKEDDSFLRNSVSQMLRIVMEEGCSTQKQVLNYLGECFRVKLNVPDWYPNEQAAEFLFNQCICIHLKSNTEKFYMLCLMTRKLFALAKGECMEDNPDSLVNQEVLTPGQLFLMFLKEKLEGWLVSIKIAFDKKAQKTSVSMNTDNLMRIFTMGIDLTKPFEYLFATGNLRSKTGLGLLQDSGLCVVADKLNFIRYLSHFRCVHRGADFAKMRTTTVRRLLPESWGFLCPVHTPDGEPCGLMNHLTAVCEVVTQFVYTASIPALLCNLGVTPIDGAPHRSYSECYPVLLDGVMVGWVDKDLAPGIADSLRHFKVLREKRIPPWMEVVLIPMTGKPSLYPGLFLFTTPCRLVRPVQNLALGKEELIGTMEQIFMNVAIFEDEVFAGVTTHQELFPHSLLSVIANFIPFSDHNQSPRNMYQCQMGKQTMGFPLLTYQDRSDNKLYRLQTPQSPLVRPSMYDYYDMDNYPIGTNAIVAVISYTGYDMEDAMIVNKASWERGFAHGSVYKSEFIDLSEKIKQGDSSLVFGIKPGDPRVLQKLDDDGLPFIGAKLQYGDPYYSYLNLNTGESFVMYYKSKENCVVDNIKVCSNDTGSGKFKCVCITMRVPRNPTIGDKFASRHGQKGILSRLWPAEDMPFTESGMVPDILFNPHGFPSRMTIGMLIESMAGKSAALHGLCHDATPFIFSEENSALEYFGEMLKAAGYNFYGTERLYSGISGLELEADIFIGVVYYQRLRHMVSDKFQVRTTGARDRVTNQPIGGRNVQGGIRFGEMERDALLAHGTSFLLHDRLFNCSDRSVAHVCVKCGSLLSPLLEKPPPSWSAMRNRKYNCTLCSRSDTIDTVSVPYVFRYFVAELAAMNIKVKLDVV
UniProt Q7RTV0, whole entry, looked up: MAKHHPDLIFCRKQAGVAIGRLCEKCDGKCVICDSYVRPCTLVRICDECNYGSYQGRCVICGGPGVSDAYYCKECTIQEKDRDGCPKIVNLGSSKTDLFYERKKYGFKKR
UniProt Q13526, 96-117: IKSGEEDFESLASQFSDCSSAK
UniProt Q9BSJ6: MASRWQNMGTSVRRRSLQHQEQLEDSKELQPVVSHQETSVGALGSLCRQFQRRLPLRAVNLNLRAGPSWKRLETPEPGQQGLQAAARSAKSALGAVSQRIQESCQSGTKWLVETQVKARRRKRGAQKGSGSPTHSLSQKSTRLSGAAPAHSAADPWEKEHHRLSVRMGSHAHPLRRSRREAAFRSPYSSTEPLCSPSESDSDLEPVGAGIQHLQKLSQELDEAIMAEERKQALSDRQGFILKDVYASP
UniProt O75925: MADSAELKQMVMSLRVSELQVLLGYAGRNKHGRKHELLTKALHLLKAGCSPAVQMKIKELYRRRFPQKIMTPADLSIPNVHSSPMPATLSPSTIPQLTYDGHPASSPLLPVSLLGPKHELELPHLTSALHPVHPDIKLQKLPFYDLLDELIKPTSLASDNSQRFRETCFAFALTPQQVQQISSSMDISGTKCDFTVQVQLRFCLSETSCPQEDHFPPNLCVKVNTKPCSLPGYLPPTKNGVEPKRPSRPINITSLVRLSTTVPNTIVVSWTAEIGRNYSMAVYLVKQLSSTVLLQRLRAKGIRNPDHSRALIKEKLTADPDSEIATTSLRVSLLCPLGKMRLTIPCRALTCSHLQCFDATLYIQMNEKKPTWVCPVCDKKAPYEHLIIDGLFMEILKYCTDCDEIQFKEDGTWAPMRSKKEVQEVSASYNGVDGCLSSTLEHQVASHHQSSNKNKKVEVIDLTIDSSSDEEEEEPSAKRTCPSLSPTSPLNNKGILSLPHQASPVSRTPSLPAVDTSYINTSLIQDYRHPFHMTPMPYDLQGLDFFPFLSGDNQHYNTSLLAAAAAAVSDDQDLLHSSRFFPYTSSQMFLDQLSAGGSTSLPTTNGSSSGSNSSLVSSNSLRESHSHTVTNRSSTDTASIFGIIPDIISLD
UniProt P29590: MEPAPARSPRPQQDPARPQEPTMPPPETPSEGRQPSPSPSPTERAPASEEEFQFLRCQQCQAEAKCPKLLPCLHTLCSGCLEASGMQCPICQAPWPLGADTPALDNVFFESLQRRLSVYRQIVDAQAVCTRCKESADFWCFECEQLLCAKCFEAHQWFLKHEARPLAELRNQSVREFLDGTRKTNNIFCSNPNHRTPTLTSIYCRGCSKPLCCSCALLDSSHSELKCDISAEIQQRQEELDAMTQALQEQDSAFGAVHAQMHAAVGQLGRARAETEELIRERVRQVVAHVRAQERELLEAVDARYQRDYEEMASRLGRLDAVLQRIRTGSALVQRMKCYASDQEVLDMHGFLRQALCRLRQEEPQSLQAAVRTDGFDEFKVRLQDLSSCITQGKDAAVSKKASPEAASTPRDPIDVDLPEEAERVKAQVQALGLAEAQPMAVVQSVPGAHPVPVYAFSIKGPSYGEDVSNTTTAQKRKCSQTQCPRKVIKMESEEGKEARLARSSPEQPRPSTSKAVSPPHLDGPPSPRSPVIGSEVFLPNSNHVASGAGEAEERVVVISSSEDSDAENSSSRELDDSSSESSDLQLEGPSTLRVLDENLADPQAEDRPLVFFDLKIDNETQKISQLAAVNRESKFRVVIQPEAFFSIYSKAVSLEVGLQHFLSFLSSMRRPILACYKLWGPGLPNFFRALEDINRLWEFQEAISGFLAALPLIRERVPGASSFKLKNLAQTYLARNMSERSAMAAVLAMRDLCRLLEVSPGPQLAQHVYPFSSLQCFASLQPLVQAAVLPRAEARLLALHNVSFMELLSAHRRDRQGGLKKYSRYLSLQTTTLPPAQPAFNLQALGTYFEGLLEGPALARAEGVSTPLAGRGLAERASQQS
UniProt P15735: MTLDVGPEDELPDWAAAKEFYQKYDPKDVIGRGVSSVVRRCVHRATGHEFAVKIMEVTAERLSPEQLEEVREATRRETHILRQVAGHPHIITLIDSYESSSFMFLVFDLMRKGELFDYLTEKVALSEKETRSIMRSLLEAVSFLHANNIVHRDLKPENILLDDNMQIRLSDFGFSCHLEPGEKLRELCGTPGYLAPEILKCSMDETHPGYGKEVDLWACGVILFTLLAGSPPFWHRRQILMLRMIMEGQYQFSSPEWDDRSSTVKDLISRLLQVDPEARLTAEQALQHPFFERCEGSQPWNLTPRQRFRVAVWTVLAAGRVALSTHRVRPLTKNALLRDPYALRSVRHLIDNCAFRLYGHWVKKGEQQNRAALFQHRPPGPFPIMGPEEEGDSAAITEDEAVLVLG
UniProt Q92871: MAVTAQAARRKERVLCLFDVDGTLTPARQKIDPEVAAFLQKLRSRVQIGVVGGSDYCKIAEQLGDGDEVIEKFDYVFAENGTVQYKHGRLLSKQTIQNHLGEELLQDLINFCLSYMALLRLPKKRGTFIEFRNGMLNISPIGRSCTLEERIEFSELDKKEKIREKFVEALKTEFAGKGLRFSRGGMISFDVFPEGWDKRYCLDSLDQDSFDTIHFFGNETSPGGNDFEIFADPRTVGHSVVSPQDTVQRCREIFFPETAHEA
UniProt O60664: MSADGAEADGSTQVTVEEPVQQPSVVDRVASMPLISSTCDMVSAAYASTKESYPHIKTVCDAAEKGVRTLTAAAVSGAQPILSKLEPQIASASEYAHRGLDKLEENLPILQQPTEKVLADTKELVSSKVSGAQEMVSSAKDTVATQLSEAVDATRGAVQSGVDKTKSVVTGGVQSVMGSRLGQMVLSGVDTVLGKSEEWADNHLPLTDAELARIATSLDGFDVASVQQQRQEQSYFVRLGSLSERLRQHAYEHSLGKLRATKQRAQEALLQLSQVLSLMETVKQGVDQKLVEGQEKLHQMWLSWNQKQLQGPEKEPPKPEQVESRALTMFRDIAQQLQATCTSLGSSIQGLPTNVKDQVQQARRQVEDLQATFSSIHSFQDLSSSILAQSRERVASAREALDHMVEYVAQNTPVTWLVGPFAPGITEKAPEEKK
UniProt O00469: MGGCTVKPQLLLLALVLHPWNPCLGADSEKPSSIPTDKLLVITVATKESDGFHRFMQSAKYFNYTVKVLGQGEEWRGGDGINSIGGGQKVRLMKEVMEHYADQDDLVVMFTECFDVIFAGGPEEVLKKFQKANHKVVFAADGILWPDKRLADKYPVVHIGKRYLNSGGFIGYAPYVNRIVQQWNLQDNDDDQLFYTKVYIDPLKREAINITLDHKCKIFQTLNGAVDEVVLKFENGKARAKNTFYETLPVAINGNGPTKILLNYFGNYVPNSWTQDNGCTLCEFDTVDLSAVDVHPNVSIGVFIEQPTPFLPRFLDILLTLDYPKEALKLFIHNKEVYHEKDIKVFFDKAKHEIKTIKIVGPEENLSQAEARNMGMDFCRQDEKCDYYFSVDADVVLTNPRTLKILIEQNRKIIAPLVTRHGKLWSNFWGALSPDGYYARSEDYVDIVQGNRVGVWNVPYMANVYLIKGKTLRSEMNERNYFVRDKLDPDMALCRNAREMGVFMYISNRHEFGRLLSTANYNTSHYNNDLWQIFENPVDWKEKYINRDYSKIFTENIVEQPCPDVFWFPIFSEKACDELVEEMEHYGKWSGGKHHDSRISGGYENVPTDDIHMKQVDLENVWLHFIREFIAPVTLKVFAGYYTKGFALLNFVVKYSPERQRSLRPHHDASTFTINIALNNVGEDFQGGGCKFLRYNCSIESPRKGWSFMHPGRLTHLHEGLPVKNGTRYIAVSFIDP
UniProt P53350: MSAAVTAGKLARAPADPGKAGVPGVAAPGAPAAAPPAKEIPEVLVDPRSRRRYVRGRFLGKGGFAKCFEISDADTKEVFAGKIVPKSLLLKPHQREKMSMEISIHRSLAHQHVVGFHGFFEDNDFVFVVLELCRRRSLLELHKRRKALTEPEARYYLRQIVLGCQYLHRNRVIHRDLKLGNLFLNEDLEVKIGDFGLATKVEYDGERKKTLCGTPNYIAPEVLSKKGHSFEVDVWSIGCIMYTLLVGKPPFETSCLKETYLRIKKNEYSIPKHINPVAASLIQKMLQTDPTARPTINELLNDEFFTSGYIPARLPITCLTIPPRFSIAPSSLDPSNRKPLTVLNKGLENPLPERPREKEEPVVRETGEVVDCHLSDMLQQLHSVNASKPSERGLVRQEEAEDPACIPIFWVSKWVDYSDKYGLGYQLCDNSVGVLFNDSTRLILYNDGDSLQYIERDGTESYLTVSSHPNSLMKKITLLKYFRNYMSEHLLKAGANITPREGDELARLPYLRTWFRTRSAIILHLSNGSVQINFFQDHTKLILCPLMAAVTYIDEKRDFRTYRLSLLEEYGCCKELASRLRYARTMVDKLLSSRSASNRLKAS
UniProt Q9GZS1: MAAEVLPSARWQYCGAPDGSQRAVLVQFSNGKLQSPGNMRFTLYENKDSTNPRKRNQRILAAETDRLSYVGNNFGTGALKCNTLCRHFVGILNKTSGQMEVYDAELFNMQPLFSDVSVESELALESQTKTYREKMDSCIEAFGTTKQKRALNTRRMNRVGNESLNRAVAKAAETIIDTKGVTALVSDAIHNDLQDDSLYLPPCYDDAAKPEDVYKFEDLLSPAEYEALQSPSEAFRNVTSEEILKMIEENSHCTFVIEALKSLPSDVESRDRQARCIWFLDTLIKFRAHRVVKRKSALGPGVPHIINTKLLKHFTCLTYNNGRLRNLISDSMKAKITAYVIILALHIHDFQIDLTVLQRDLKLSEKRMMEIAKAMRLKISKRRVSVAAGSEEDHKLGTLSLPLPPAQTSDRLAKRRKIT

Legend:
[1] = compound: ClCC(=O)N[C@@H]1CCCc2ccccc12; assay: log2 mean competition ratio of IA-DTB cysteine labelling (DMSO/compound) (log2 ratio); higher = stronger cysteine engagement by compound; conditions: treatment time: 4 h, cell line lysate: HEK293T
Description: (§1)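 IA-DTB competitive cysteine chemoproteomics in HEK293T RIPA lysate. Lysates were treated with compound 29 or 30 at 50 or 200 µM for 4 h, then IA-DTB (500 µM, 1 h), trypsin-digested, NeutrAvidin-enriched and analysed by diaPASEF. Competition ratio = intensity DMSO / intensity compound (n=4 treated, n=64 DMSO); binding: mean log2 CR ≥ 1 and p ≤ 0.05 plus QC filters. Target is the cysteine site.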

[2] = compound: ClCC(=O)N[C@H]1CCCc2ccccc12; assay: as above; conditions: treatment time: 4 h, cell line lysate: HEK293T
Description: as §1

| Target | log2 mean competition ratio ([1]; 50 µM) | log2 mean competition ratio ([1]; 200 µM) | log2 mean competition ratio ([2]; 50 µM) | log2 mean competition ratio ([2]; 200 µM) |
| --- | --- | --- | --- | --- |
| POLR1B C307 (UniProt Q9H9Y6) | -0.103 | -0.0204 | -0.058 | -0.00689 |
| PHKA2 C681 (UniProt P46019) | -0.068 | -0.219 | 0.63 | -0.134 |
| PHF5A C85 (UniProt Q7RTV0) | -0.0129 | -0.197 | 0.0635 | -0.135 |
| PIN1 C113 (UniProt Q13526) | -0.153 | 0.243 | 0.186 | 0.239 |
| PISD C300 (UniProt Q9UG56) | 0.024 | -0.211 | 0.03 | -0.265 |
| PIMREG C104 (UniProt Q9BSJ6) | -0.021 | -0.149 | -0.116 | -0.0481 |
| PIAS1 C228 (UniProt O75925) | 0.00703 | -0.0041 | -0.31 | -0.214 |
| PML C227 (UniProt P29590) | -0.203 | 0.029 | -0.186 | -0.00348 |
| PHKG2 C201 (UniProt P15735) | -0.134 | 0.0719 | -0.351 | -0.131 |
| PIAS3 C620 | 0.0618 | 0.443 | -0.21 | 0.246 |
| PMM1 C16 (UniProt Q92871) | -0.0958 | -0.395 | 0.16 | 0.191 |
| PLIN3 C60 (UniProt O60664) | 0.112 | 0.124 | 0.0593 | 0.109 |
| PLOD2 C379 (UniProt O00469) | -0.216 | -0.254 | 0.123 | 0.0921 |
| PLK1 C405 (UniProt P53350) | -0.38 | -0.417 | 0.162 | 0.226 |
| PNKP C308 (UniProt Q96T60) | -0.149 | 0.0704 | 0.129 | 0.3 |
| POLR1E C14 (UniProt Q9GZS1) | 0.403 | -0.0666 | 0.214 | -0.0765 |

2 records drawn at random from those above:

| Target | log2 mean competition ratio ([1]; 50 µM) | log2 mean competition ratio ([1]; 200 µM) | log2 mean competition ratio ([2]; 50 µM) | log2 mean competition ratio ([2]; 200 µM) |
| --- | --- | --- | --- | --- |
| PLOD2 C379 (UniProt O00469) | -0.216 | -0.254 | 0.123 | 0.0921 |
| PIMREG C104 (UniProt Q9BSJ6) | -0.021 | -0.149 | -0.116 | -0.0481 |
